Data as given in PubChem BioAssay AID602196 (INSERM, 2012).

- Screen: 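Knock-downs that protect lung cancer cells from cisplatin or sensitise them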
- System: human A549 lung cancer cells
- Reagent: siRNA pair against human genes
- Time to read-out: 48 h transfection before cisplatin; time from cisplatin to read-out not stated
- Conditions: cisplatin at a dose killing half of control-siRNA cells; exact dose and duration not given
- Measurement: 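Cisplatin cell death as a shift from the 50% death seen with control siRNA; siRNAs toxic or growth-blocking alone scored 0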
- Reading the numbers: two-siRNA summed score (-2 to +2): higher = both siRNAs protect from cisplatin killing; -2 means both sensitise; mean protection from cisplatin (shift in death) and protection from cisplatin (shift in death), siRNA C and protection from cisplatin (shift in death), siRNA D: higher = protection from cisplatin killing
- Call rule: 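Each siRNA scores 0 if harmful alone by LDH or WST-1, otherwise +1 if it reduces and -1 if it increases cisplatin killing; a gene is active when both siRNAs agree (sum +2 or -2)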
- Calls: active = both siRNAs shift cisplatin killing the same way; inactive = no consistent shift, or siRNA harmful alone
In all, the deposit lists about 23,000 reagents; shown is a random part of them. 455 of them (2%) were called active. 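Active includes both protection and sensitisation; some change values fall well beyond the stated -50 to +50 range.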 A number with no mark means an inactive call. The numbers tell different reagents against one gene apart. The record does not give: the amount of reagent.

gene symbol | reagent | two-siRNA summed score (-2 to +2) | mean protection from cisplatin (shift in death) (%) | protection from cisplatin (shift in death), siRNA C (%) | protection from cisplatin (shift in death), siRNA D (%)
LOC390735 | 1 | 0 | 7.3 | -1.1 | 15.8
TMEM244 (transmembrane protein 244) | 1 | 0 | 5.4 | 6.3 | 4.6
NUDT11 (nudix hydrolase 11) | 1 | 0 | -1 | 7.6 | -9.6
NSMCE3 (NSE3 component of SMC5/6 complex) | 1 | 0 | -1.6 | -10.1 | 6.9
LOC389264 | 1 | 1 | 25.4 | 31.2 | 19.6
IL13 (interleukin 13) | 1 | 0 | -16.8 | -17.9 | -15.7
USP53 (ubiquitin specific peptidase 53) | 1 | 0 | -0.4 | -3.8 | 2.9
MSC (musculin) | 1 | 0 | -5.9 | -16.3 | 4.5
ZNG1A (Zn regulated GTPase metalloprotein activator 1A) | 1 | 0 | 7.2 | -1.7 | 16.2
LOXL2 (lysyl oxidase like 2) | 1 | 0 | -2 | -0.9 | -3.1
TMEM237 (transmembrane protein 237) | 1 | 1 | 8.1 | -5.3 | 21.4
FHIT (fragile histidine triad diadenosine triphosphatase) | 1 | -1 | -5.1 | -16.8 | 6.6
HARS1 (histidyl-tRNA synthetase 1) | 1 | -1 | -0.7 | 7.9 | -9.3
WAC-AS1 (WAC antisense RNA 1) | 1 | 0 | 9.9 | 9.2 | 10.5
TNNI3K (TNNI3 interacting kinase) | 1 | 0 | -1.6 | 10.4 | -13.6
OR51A7 (olfactory receptor family 51 subfamily A member 7) | 1 | 0 | 14.3 | 12.5 | 16.2
MYH9 (myosin heavy chain 9) | 1 | -1 | -7.5 | 4.2 | -19.3
FAHD2B (fumarylacetoacetate hydrolase domain containing 2B) | 1 | -1 | -7.2 | -18.7 | 4.4
INPP5F (inositol polyphosphate-5-phosphatase F) | 1 | 1 | 12.6 | -0.1 | 25.3
LOC441624 | 1 | 0 | 21.8 | 5.9 | 37.8
PUSL1 (pseudouridine synthase like 1) | 1 | 0 | 1.8 | -3.4 | 7
CCDC196 (coiled-coil domain containing 196) | 1 | 0 | 11.6 | 14.4 | 8.9
RPS2P56 (RPS2 pseudogene 56) | 1 | 0 | 7 | 13.7 | 0.3
ZNF541 (zinc finger protein 541) | 1 | 0 | 5.9 | 4.2 | 7.6
RPL21 (ribosomal protein L21) | 1 | 0 | 31.9 | 21.5 | 42.4
CHAD (chondroadherin) | 1 | 0 | 3.1 | 2.3 | 3.9

9 of these entries in another layout:
{"gene symbol":"TNNI3K (TNNI3 interacting kinase)","reagent":1,"two-siRNA summed score (-2 to +2)":0,"mean protection from cisplatin (shift in death) (%)":-1.6,"protection from cisplatin (shift in death), siRNA C (%)":10.4,"protection from cisplatin (shift in death), siRNA D (%)":-13.6}
{"gene symbol":"OR51A7 (olfactory receptor family 51 subfamily A member 7)","reagent":1,"two-siRNA summed score (-2 to +2)":0,"mean protection from cisplatin (shift in death) (%)":14.3,"protection from cisplatin (shift in death), siRNA C (%)":12.5,"protection from cisplatin (shift in death), siRNA D (%)":16.2}
{"gene symbol":"MYH9 (myosin heavy chain 9)","reagent":1,"two-siRNA summed score (-2 to +2)":-1,"mean protection from cisplatin (shift in death) (%)":-7.5,"protection from cisplatin (shift in death), siRNA C (%)":4.2,"protection from cisplatin (shift in death), siRNA D (%)":-19.3}
{"gene symbol":"FAHD2B (fumarylacetoacetate hydrolase domain containing 2B)","reagent":1,"two-siRNA summed score (-2 to +2)":-1,"mean protection from cisplatin (shift in death) (%)":-7.2,"protection from cisplatin (shift in death), siRNA C (%)":-18.7,"protection from cisplatin (shift in death), siRNA D (%)":4.4}
{"gene symbol":"INPP5F (inositol polyphosphate-5-phosphatase F)","reagent":1,"two-siRNA summed score (-2 to +2)":1,"mean protection from cisplatin (shift in death) (%)":12.6,"protection from cisplatin (shift in death), siRNA C (%)":-0.1,"protection from cisplatin (shift in death), siRNA D (%)":25.3}
{"gene symbol":"LOC441624","reagent":1,"two-siRNA summed score (-2 to +2)":0,"mean protection from cisplatin (shift in death) (%)":21.8,"protection from cisplatin (shift in death), siRNA C (%)":5.9,"protection from cisplatin (shift in death), siRNA D (%)":37.8}
{"gene symbol":"PUSL1 (pseudouridine synthase like 1)","reagent":1,"two-siRNA summed score (-2 to +2)":0,"mean protection from cisplatin (shift in death) (%)":1.8,"protection from cisplatin (shift in death), siRNA C (%)":-3.4,"protection from cisplatin (shift in death), siRNA D (%)":7}
{"gene symbol":"CCDC196 (coiled-coil domain containing 196)","reagent":1,"two-siRNA summed score (-2 to +2)":0,"mean protection from cisplatin (shift in death) (%)":11.6,"protection from cisplatin (shift in death), siRNA C (%)":14.4,"protection from cisplatin (shift in death), siRNA D (%)":8.9}
{"gene symbol":"RPS2P56 (RPS2 pseudogene 56)","reagent":1,"two-siRNA summed score (-2 to +2)":0,"mean protection from cisplatin (shift in death) (%)":7,"protection from cisplatin (shift in death), siRNA C (%)":13.7,"protection from cisplatin (shift in death), siRNA D (%)":0.3}

The list goes on:
gene symbol | reagent | two-siRNA summed score (-2 to +2) | mean protection from cisplatin (shift in death) (%) | protection from cisplatin (shift in death), siRNA C (%) | protection from cisplatin (shift in death), siRNA D (%)
CCDC57 (coiled-coil domain containing 57) | 1 | -1 | 3.1 | 23.4 | -17.3
CCDC57 (coiled-coil domain containing 57) | 2 | 0 | 11.5 | 4.2 | 18.8
KMT2A (lysine methyltransferase 2A) | 1 | -1 | -5.8 | 4.7 | -16.3
KMT2A (lysine methyltransferase 2A) | 2 | 0 | -3.2 | -8.5 | 2
LOC389457 | 1 | 1 | 18.9 | 15.9 | 22
SEMA3F (semaphorin 3F) | 1 | 0 | 5.7 | -8.2 | 19.6
PROKR2 (prokineticin receptor 2) | 1 | 0 | 3.8 | 23.4 | -15.8
SLCO5A1 | 1 | 0 | 7.3 | 8.3 | 6.2
MCRIP2 (MAPK regulated corepressor interacting protein 2) | 1 | 0 | 9.8 | 8.1 | 11.6
GTF3C5 (general transcription factor IIIC subunit 5) | 1 | 0 | 12.6 | -2.1 | 27.3
SPACA9 (sperm acrosome associated 9) | 1 | 0 | 1.2 | -2.7 | 5.1
LOC221875 | 1 | 1 | 22.6 | 13.4 | 31.8
CCDC85B (coiled-coil domain containing 85B) | 1 | 0 | -12.3 | -4.2 | -20.4
ARFGAP2 (ARF GTPase activating protein 2) | 1 | 0 | -6.8 | -8.7 | -5
MRPL37 (mitochondrial ribosomal protein L37) | 1 | 0 | 9.9 | 14.5 | 5.3
CHRM1 (cholinergic receptor muscarinic 1) | 1 | 1 | 3.7 | -0.1 | 7.4
LOC441813 | 1 | 0 | 9.3 | 17.1 | 1.6
LOC389024 | 1 | 0 | 7.4 | 11.4 | 3.4
GAGE1 (G antigen 1) | 1 | 0 | -1.2 | -7.4 | 5
LOC401147 | 1 | 0 | -4.7 | 1.6 | -11.1
TCN1 (transcobalamin 1) | 1 | 0 | 6.5 | 15.5 | -2.6
LINC03048 (long independently transcribed non-coding RNA 3048) | 1 | 1 | 10.3 | 9.1 | 11.4
TP53RK (TP53 regulating kinase) | 1 | 1 | 7.8 | 17.7 | -2.1
AUTS2 (activator of transcription and developmental regulator AUTS2) | 1 | 0 | 3.6 | 4.6 | 2.7
LOC439997 | 1 | 0 | 3.5 | 4.4 | 2.6
CENPBD1P (CENPB DNA-binding domain containing 1, pseudogene) | 1 | 1 | 15.9 | 23.4 | 8.5
SLC22A9 | 1 | -1 | -13.8 | -0.1 | -27.4
CSTB (cystatin B) | 1 | 1 | 13.7 | 24.1 | 3.3
SENP6 (SUMO specific peptidase 6) | 1 | 0 | 5.5 | 2 | 9
LOC440616 | 1 | 0 | 7.6 | 1.9 | 13.3
LOC391062 | 1 | 0 | 9.5 | 8.4 | 10.7
